Primary screen of a compound library

A: 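Phenotypic screen: M. tuberculosis growth, cholesterol and DPPC medium, 4 days; the read-out is not stated. Concentration: 50 µM. The record gives no direction; compounds that gave an IC50 in retests scored well above the rest, so higher reads as more growth inhibition. Size under these conditions: about 69,000 compounds, about 370 of them at 50% or above in at least one test.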
B: 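Whole-cell growth test on Mycobacterium tuberculosis, read after 3 days in glucose-containing 7H9 medium; the read-out is not stated. Tested at 50 µM. Direction is inferred from retests: higher values go with more growth inhibition. Size under these conditions: about 69,000 compounds, about 760 of them at 50% or above in at least one test.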

Results are given as percent effect. The record does not define 0% and 100%; most values in the screen are far below 50% and negative numbers occur (in some assays of this library far below -100). This is an unselected part of the compounds tested. Two or more numbers in one place are separate tests of the same structure; such repeats can differ widely.

{"compound": "Cc1cccc(N(CCC(N)=O)C(=O)c2cc(-n3cccn3)ccn2)c1", "A": 4.825, "B": -20.89}
{"compound": "O=C(NCCCO)c1cc(-c2cc[nH]n2)n2ccccc12.O=C(O)C(F)(F)F", "A": -10.88, "B": -3.235}
{"compound": "NCc1cn(CC2CCCN(C(=O)NCc3ccc(Cl)cc3)C2)nn1", "stereo": "stereo unspecified", "A": 19.1, "B": 34.51}
{"compound": "O=C(c1cnccn1)N1CCn2cnc(COCC3CC3)c2C1", "A": "-20.39 & -39.73", "B": "-37.63 & -13.27"}
{"compound": "N#Cc1ccccc1N1CCCN(C(=O)CCc2cccs2)CC1", "A": 1.866, "B": 19.14}
{"compound": "Cc1nc(C(C)NC(=O)COc2ccc(F)cc2)n[nH]1", "stereo": "stereo unspecified", "A": -27.36, "B": -19.99}
{"compound": "[H][C@]12CC[C@@]3(N=C(CC)NC3=O)[C@@]1([H])CN(C(=O)NCc1ccccc1)C2", "A": -7.501, "B": -38.6}
{"compound": "O=C(C(CNCc1ccsc1)c1ccccc1)N1CCOCC1", "stereo": "stereo unspecified", "A": -16.39, "B": -24.22}
{"compound": "CCn1c(Cn2cncn2)nnc1C1CCN(C2CCNCC2)CC1", "A": -19.05, "B": -3.393}
{"compound": "COCCN1CCC2(CC1)CN(C(=O)Cc1cccnc1)CCO2.O=C(O)C(F)(F)F.O=C(O)C(F)(F)F", "A": -24.51, "B": -19.68}
{"compound": "c1coc(-c2noc(CN3CCC(c4ccn[nH]4)CC3)n2)c1", "A": 12.58, "B": 16.91}
{"compound": "COc1cc(F)cc(NC(=O)NCc2cccc(N(C)C)n2)c1", "A": 6.139, "B": -26.07}
{"compound": "Cc1cc2c(N3CCC(N(C)CCc4cnn(C)c4)CC3)ncnc2s1", "A": -13.67, "B": -28.37}
{"compound": "CCc1ccc(C(=O)N(c2cccnc2)C(C)C)cc1S(C)(=O)=O", "A": -0.5097, "B": "-10.07 & 14.82"}
{"compound": "O=C(NCc1cccc(C(F)(F)F)c1)C(c1cccnc1)N1CCCC1", "stereo": "stereo unspecified", "A": -5.047, "B": 3.911}
{"compound": "Cc1cc(C(=O)N[C@H]2CC[C@@]3(CCC(=O)N3CC3CC3)CC2)no1", "A": 11.66, "B": -4.703}
{"compound": "CC(NC(=O)N1CCc2ccccc21)c1nncn1C", "stereo": "stereo unspecified", "A": -5.28, "B": "6.974 & 0.2986"}
{"compound": "COCc1noc(C2(c3ccc(F)cc3)CC2)n1", "A": -31.24, "B": "-8.874 & -63.68"}
{"compound": "O=C(O)C(F)(F)F.[H][C@]12CCC(=O)N(c3ccccc3)[C@@]1([H])CCN2c1ncc(C)cn1", "A": -19.7, "B": -20.21}
{"compound": "CC(=O)N1CCC(c2nc3ccc(C)cn3n2)CC1", "A": -20.36, "B": -25.19}
{"compound": "CC(=O)NCC(=O)N1CCc2c(CN(C)C)nn(C(C)C)c2C1", "A": 11.64, "B": "-17.32 & -3.331"}
{"compound": "Cc1nccn1C1CCCN(C(=O)c2cccc(OCC(N)=O)c2)C1", "stereo": "stereo unspecified", "A": -15.47, "B": -12.05}
{"compound": "O=C1c2cccnc2OC(CN2CCOCC2)CN1C1CCC1", "stereo": "stereo unspecified", "A": -7.39, "B": 4.551}
{"compound": "CCn1cc(CN2CCCN(C(=O)c3ccc(C)nc3)CC2)cn1", "A": -8.328, "B": 3.405}
{"compound": "Cc1cc(N2CCC3(CCC(=O)N(CC4CC4)C3)CC2)ncn1", "A": -4.497, "B": "-7.635 & -2.564"}
{"compound": "COc1cccc(C(C)N2CCN(S(C)(=O)=O)CC2)c1", "stereo": "stereo unspecified", "A": -12.91, "B": -21.94}

3 of the entries, repeated:

| Compound | A | B |
|---|---|---|
| `Cc1cc2c(N3CCC(N(C)CCc4cnn(C)c4)CC3)ncnc2s1` | -13.67% | -28.37% |
| `CC(=O)NCC(=O)N1CCc2c(CN(C)C)nn(C(C)C)c2C1` | 11.64% | -17.32% & -3.331% |
| `O=C(O)C(F)(F)F.[H][C@]12CCC(=O)N(c3ccccc3)[C@@]1([H])CCN2c1ncc(C)cn1` | -19.7% | -20.21% |

Measurements from “University of Dundee, Small-Polar-MMV Screening Library” (2021), ChEMBL document CHEMBL3988442.